Experimental data taken from the supplement of paper PMC11438910.
The other results are listed elsewhere or left out. Only a few entries rise above the background.

Key:
Experiment in all cases: fluorescence intensity of antibody binding to polysaccharide-coupled beads; higher = stronger binding
[1] = molecular target: pneumococcal polysaccharide Pn25A
[2] = molecular target: pneumococcal polysaccharide Pn25F
[3] = molecular target: pneumococcal polysaccharide Pn27
[4] = molecular target: pneumococcal polysaccharide Pn28A
[5] = molecular target: pneumococcal polysaccharide Pn28F
[6] = molecular target: pneumococcal polysaccharide Pn29
[7] = molecular target: pneumococcal polysaccharide Pn3
[8] = molecular target: pneumococcal polysaccharide Pn31
[9] = molecular target: pneumococcal polysaccharide Pn32A
[10] = molecular target: pneumococcal polysaccharide Pn32F
[11] = molecular target: pneumococcal polysaccharide Pn33A
[12] = molecular target: pneumococcal polysaccharide Pn33B
[13] = antibody concentration 0.1 ng/mL
[14] = antibody concentration 0.534724 ng/mL
[15] = antibody concentration 2.8593 ng/mL
[16] = antibody concentration 15.2894 ng/mL
[17] = antibody concentration 81.7561 ng/mL
[18] = antibody concentration 437.17 ng/mL
[19] = antibody concentration 2337.65 ng/mL
[20] = antibody concentration 12500 ng/mL

B1: 4-127.2 (protein)
chain 1: QVQLQESGPGLVKPSETLSLTCAVSGYSVNSGHGWTWIRQSPGKGLEWIGYIGGGSGSSNYNPSLKSRVTISKDTSNNQLSLKLRSLTTADTAMYYCARRVPADRSGNDYWGQGVLVTVSS
chain 2: QSVLTQPPSVSGDPGQRVTISCTGSSSNIGDYYGYWYQQFPGTAPKLLIFDDNNRPSGISDRFSGSKAGTSASLTITGLQPGDEADYYCGAWDGSLNAHVFGSGTKLTVL
[1]; [13]
  fluorescence intensity: 23 MFI
[1]; [14]
  fluorescence intensity: 23 MFI
[1]; [15]
  fluorescence intensity: 22.8 MFI
[1]; [16]
  fluorescence intensity: 23.5 MFI
[1]; [17]
  fluorescence intensity: 23.5 MFI
[1]; [18]
  fluorescence intensity: 27 MFI
[1]; [19]
  fluorescence intensity: 28.5 MFI
[1]; [20]
  fluorescence intensity: 32 MFI
[2]; [13]
  fluorescence intensity: 30 MFI
[2]; [14]
  fluorescence intensity: 31.5 MFI
[2]; [15]
  fluorescence intensity: 29 MFI
[2]; [16]
  fluorescence intensity: 29.5 MFI
[2]; [17]
  fluorescence intensity: 30 MFI
[2]; [18]
  fluorescence intensity: 30 MFI
[2]; [19]
  fluorescence intensity: 31.5 MFI
[2]; [20]
  fluorescence intensity: 45.5 MFI
[3]; [13]
  fluorescence intensity: 16.5 MFI
[3]; [14]
  fluorescence intensity: 15.5 MFI
[3]; [15]
  fluorescence intensity: 16 MFI
[3]; [16]
  fluorescence intensity: 15.5 MFI
[3]; [17]
  fluorescence intensity: 18 MFI
[3]; [18]
  fluorescence intensity: 22 MFI
[3]; [19]
  fluorescence intensity: 38.8 MFI
[3]; [20]
  fluorescence intensity: 187 MFI
[4]; [13]
  fluorescence intensity: 27 MFI
[4]; [14]
  fluorescence intensity: 26 MFI
[4]; [15]
  fluorescence intensity: 24.5 MFI
[4]; [16]
  fluorescence intensity: 26.8 MFI
[4]; [17]
  fluorescence intensity: 25.8 MFI
[4]; [18]
  fluorescence intensity: 30 MFI
[4]; [19]
  fluorescence intensity: 27.8 MFI
[4]; [20]
  fluorescence intensity: 33.5 MFI
[5]; [13]
  fluorescence intensity: 27.8 MFI
[5]; [14]
  fluorescence intensity: 29 MFI
[5]; [15]
  fluorescence intensity: 27.8 MFI
[5]; [16]
  fluorescence intensity: 27.5 MFI
[5]; [17]
  fluorescence intensity: 29 MFI
[5]; [18]
  fluorescence intensity: 30.8 MFI
[5]; [19]
  fluorescence intensity: 33.2 MFI
[5]; [20]
  fluorescence intensity: 94 MFI
[6]; [13]
  fluorescence intensity: 16 MFI
[6]; [14]
  fluorescence intensity: 16 MFI
[6]; [15]
  fluorescence intensity: 15.5 MFI
[6]; [16]
  fluorescence intensity: 15.5 MFI
[6]; [17]
  fluorescence intensity: 14.5 MFI
[6]; [18]
  fluorescence intensity: 19 MFI
[6]; [19]
  fluorescence intensity: 26 MFI
[6]; [20]
  fluorescence intensity: 119 MFI
[7]; [13]
  fluorescence intensity: 16 MFI
[7]; [14]
  fluorescence intensity: 28.5 MFI
[7]; [15]
  fluorescence intensity: 71 MFI
[7]; [16]
  fluorescence intensity: 312 MFI
[7]; [17]
  fluorescence intensity: 1440 MFI
[7]; [18]
  fluorescence intensity: 4680 MFI
[7]; [19]
  fluorescence intensity: 6570 MFI
[7]; [20]
  fluorescence intensity: 7280 MFI
[8]; [13]
  fluorescence intensity: 13 MFI
[8]; [14]
  fluorescence intensity: 13.5 MFI
[8]; [15]
  fluorescence intensity: 13.5 MFI
[8]; [16]
  fluorescence intensity: 13.5 MFI
[8]; [17]
  fluorescence intensity: 13.5 MFI
[8]; [18]
  fluorescence intensity: 16.8 MFI
[8]; [19]
  fluorescence intensity: 23.8 MFI
[8]; [20]
  fluorescence intensity: 129 MFI
[9]; [13]
  fluorescence intensity: 17.5 MFI
[9]; [14]
  fluorescence intensity: 18 MFI
[9]; [15]
  fluorescence intensity: 16.8 MFI
[9]; [16]
  fluorescence intensity: 16.5 MFI
[9]; [17]
  fluorescence intensity: 17.2 MFI
[9]; [18]
  fluorescence intensity: 21.2 MFI
[9]; [19]
  fluorescence intensity: 22.5 MFI
[9]; [20]
  fluorescence intensity: 44 MFI
[10]; [13]
  fluorescence intensity: 28 MFI
[10]; [14]
  fluorescence intensity: 24.8 MFI
[10]; [15]
  fluorescence intensity: 26.5 MFI
[10]; [16]
  fluorescence intensity: 26.5 MFI
[10]; [17]
  fluorescence intensity: 28 MFI
[10]; [18]
  fluorescence intensity: 34.5 MFI
[10]; [19]
  fluorescence intensity: 40 MFI
[10]; [20]
  fluorescence intensity: 52 MFI
[11]; [13]
  fluorescence intensity: 17.2 MFI
[11]; [14]
  fluorescence intensity: 18 MFI
[11]; [15]
  fluorescence intensity: 17.5 MFI
[11]; [16]
  fluorescence intensity: 18 MFI
[11]; [17]
  fluorescence intensity: 17.5 MFI
[11]; [18]
  fluorescence intensity: 20 MFI
[11]; [19]
  fluorescence intensity: 69.5 MFI
[11]; [20]
  fluorescence intensity: 746 MFI
[12]; [13]
  fluorescence intensity: 18 MFI
[12]; [14]
  fluorescence intensity: 17 MFI
